Experimental data published in paper PMC12084374.

Protein sequences, listed by entry. Tags and fused reporters are not part of them. Lines headed by an entry give the natural chain unless they say otherwise; changes in a name come on top.
UniProt Q5T0T0: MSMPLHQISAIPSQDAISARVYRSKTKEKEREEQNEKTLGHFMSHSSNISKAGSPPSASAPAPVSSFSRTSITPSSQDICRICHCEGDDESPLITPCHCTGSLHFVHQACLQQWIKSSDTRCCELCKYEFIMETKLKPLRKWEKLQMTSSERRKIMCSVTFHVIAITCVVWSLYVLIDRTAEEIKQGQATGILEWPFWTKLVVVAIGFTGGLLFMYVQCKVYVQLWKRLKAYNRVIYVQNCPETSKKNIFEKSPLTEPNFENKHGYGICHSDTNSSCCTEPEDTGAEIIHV

Molecular target: T1, sterol regulatory element binding protein 1 (SREBP1) (human (endogenous in Huh7 and PLC)) (UniProt P36956)
T1 sequence: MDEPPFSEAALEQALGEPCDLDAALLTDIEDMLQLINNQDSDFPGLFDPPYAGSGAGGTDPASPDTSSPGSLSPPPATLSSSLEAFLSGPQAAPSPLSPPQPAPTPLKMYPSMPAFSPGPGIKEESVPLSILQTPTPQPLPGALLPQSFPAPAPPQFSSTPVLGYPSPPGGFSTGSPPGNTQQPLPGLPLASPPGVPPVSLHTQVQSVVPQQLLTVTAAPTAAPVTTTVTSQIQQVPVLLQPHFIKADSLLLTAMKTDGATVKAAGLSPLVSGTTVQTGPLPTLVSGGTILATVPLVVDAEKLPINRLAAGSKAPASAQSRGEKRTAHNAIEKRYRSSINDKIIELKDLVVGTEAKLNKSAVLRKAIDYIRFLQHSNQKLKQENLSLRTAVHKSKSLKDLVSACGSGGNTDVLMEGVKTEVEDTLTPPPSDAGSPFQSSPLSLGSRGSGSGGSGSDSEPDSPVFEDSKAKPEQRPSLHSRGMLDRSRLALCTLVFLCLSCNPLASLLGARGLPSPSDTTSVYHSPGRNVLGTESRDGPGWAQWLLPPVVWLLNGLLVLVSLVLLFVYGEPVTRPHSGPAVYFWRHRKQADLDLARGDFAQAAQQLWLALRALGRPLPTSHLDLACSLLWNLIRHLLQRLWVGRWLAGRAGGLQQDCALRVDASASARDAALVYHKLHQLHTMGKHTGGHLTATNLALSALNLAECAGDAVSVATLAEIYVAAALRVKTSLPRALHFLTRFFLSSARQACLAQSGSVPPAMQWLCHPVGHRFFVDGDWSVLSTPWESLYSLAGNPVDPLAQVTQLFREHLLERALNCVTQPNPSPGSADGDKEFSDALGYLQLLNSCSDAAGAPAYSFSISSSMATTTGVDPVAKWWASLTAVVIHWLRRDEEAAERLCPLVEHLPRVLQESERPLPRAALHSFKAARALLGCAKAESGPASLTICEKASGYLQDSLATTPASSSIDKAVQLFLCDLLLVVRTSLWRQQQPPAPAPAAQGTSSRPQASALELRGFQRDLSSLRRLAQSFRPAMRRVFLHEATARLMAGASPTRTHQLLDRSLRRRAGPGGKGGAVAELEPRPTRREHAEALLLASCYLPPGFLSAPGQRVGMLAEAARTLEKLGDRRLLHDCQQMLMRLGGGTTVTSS
Experiment: co-IP; co-IP of domain-deletion mutants of MARCH8 or SREBP1 in Huh7 and PLC cells, Western blot

binding: binds
Substance: truncated mutant of MARCH8 lacking the TR2 domain (from UniProt Q5T0T0) (enzyme)

Results are given in words; binding and its absence hold for the method and conditions named. In cells and extracts the contact can be indirect. Binding can be weak; no strength is given.
